# Reference: PubChem BioAssay AID1671190 (National Center for Advancing Translational Sciences (NCATS), 2021)
# Sequences of proteins named here, by UniProt entry; tags and fusion partners are left off.
# UniProt P18054, whole entry, looked up: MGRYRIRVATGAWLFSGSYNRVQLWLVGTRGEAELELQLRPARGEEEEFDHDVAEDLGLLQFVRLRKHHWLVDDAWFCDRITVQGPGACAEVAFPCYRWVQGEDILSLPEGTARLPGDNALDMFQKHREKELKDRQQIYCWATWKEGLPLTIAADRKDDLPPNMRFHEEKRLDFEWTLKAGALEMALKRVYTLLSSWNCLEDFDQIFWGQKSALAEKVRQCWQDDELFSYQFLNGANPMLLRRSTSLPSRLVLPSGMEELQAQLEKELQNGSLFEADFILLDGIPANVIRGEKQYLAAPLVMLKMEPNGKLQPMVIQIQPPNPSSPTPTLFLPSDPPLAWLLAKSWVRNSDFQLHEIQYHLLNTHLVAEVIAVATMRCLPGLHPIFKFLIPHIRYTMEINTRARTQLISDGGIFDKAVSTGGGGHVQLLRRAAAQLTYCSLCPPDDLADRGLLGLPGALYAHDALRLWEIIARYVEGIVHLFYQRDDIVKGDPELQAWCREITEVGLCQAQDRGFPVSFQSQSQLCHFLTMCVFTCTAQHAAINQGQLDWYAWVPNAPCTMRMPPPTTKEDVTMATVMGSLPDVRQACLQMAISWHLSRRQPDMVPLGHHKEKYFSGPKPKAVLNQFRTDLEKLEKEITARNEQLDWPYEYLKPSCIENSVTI
# The campaign covered roughly 580,000 compounds. About 6,100 (1.1%) were called active. The inconclusive results got no clear call from the source; some entries with a clear call stand among them for comparison. The call rests on the fitted dose curve; in most records, active means well fitted inhibition curve with a large enough effect; inconclusive means small, poorly fitted or top-dose-only effect, or another doubt; inactive means no such curve, though single readings can be large or run the other way. Potencies beside an inconclusive call are fits to weak or partial responses and may not hold up.
# Target: Polyunsaturated fatty acid lipoxygenase ALOX12 (Homo sapiens) (UniProt P18054)
# Test: Primary qHTS assay for inhibitors of human arachidonate 12S-lipoxygenase (ALOX12): Round 2
# Conditions: purified 12hLO, xylenol orange hydroperoxide absorbance; activity change, negative = inhibition: at 108 µM (top of the series) unless noted
# In short: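 Purified human 12hLO (150 nM final) in 25 mM Hepes, 0.01% Triton X-100, pH 7.0 was preincubated 15 min at room temperature with compound. Then 40 uM arachidonic acid was added, 30 min. Hydroperoxide was read by Fe-XO absorbance ratio 573/405 nm.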
# On the % scale 0 is the no-effect control and ±100 the full control effect; potency means the concentration at half of the fitted maximal effect.
Structure (SMILES),Potency,"activity change, negative = inhibition"
O=C1CC2(CCN(Cc3ccc(F)cc3)CC2)Oc2cc(Cl)ccc21,"inconclusive: 63.1 µM [inhibitor, partial curve, poor fit]",–
COc1cc(CN(CC2CCCO2)C(=O)c2cccs2)cc(OC)c1OC (stereo unspecified),–,inactive: 17.3%
COc1ccc(S(=O)(=O)Cc2ccc(C(=O)NC(C)C)o2)cc1,–,inactive: 319%
CSc1ccc(/C=N/n2c(Cc3ccc(Br)cc3)n[nH]c2=S)cc1,"inconclusive: 31.6 µM [inhibitor, partial curve]",–
COc1cccc(C2C(C(=O)c3cc4ccccc4o3)=C(O)C(=O)N2CCN(C)C)c1OC (stereo unspecified),"inconclusive: 89.1 µM [inhibitor, single point]",–
Fc1ccc(NC(=S)SCc2ccc3c(c2)OCO3)cc1F,"inconclusive: 44.7 µM [inhibitor, partial curve]",–
COc1ccc(OC)c(C(=O)NC(CC(N)=O)c2ccc(NCCN3CCOCC3)c([N+](=O)[O-])c2)c1 (stereo unspecified),"inconclusive: 31.6 µM [inhibitor, partial curve, poor fit]",–
Cc1c(Cl)cccc1NC(=S)NN,–,inactive: 0.603%
CN1CCN(C(=O)c2cc(-c3ccccc3)on2)CC1,"inconclusive: 39.8 µM [inhibitor, partial curve, poor fit]",–
CN(NS(C)(=O)=O)c1ncc(C(F)(F)F)cc1Cl,–,inactive: 1.93%
N#CC(c1c(Cl)cccc1N1CCCCC1)N1CCCCC1 (stereo unspecified),–,inactive: -13.7%
Cc1ccc(-c2nnc(C3CN(C(=O)c4cccc(F)c4)CC34CCOCC4)o2)cc1 (stereo unspecified),"inconclusive: 10 µM [inhibitor, partial curve, poor fit]",–
Cn1cc(S(=O)(=O)N2CCCCCC2)cc1C(=O)Nc1ccccc1F,"inconclusive: 35.5 µM [inhibitor, single point]",–
CCOCCOC(=O)C(C)Oc1ccc2c(=O)c(Oc3cc(C)c(Cl)c(C)c3)coc2c1 (stereo unspecified),"inconclusive: 39.8 µM [inhibitor, partial curve, poor fit]",–
FC(F)(F)c1cccc(NC(=S)NCCc2ccccn2)c1,–,inactive: -19.5%
CCOC(=O)c1c(C)n(C)c2ccc(OCC(O)CNCCc3ccccc3)cc12 (stereo unspecified),"inconclusive: 112 µM [inhibitor, single point]",–
O=C(Cc1cn2ccsc2n1)N1CCCn2nc(C(O)C3CC3)cc2C1 (stereo unspecified),active: 44.7 µM,–
N#CCOc1ccc2ccccc2c1,–,inactive: 1.25%
CN(C)CCCN(C(=O)COc1ccccc1)c1nc2ccc(F)cc2s1,"inconclusive: 39.8 µM [inhibitor, partial curve, poor fit]",–
COc1cccc(-c2nn(C)c3sc(C(=O)NCc4ccc(C)cc4)cc23)c1,inactive,–
CCN(CC)C(=O)c1sc2c(c1C)c(=O)n(-c1ccc(OC)cc1OC)c(=O)n2Cc1cc(C)ccc1C,"inconclusive: 178 µM [inhibitor, partial curve, poor fit]",–
CCC(=NCc1ccco1)c1c(C(F)(F)F)[nH]n(-c2nc3ccccc3s2)c1=O,"inconclusive: 35.5 µM [inhibitor, single point]",–

Structure (SMILES),Potency,"activity change, negative = inhibition"
COc1cc(N2CCCC2)c(OC)cc1/C=C1/NC(=S)NC1=O,"inconclusive: 50.1 µM [inhibitor, partial curve, poor fit]",–
CCCNC(=O)N1C[C@@H]2C(=O)N(C(CC)c3cccs3)C(=O)[C@@H]2C1 (stereo partly specified),–,inactive: 37.8%
Cc1ccc(C(=O)CSc2nc3ccccc3c(=O)[nH]2)cc1C,"inconclusive: 141 µM [inhibitor, single point]",–
COc1ccc(C2c3ccc(O)cc3Oc3ncn4nc(COc5ccc(C)cc5)nc4c32)cc1OC (stereo unspecified),–,inactive: -17.5%
O=C(CCS(=O)(=O)c1ccccc1)N1CCN(c2ccc(F)cc2)CC1,–,inactive: -5.47%
O=C1c2ccccc2C(=O)N1OS(=O)(=O)c1ccc(F)cc1,"inconclusive: 50.1 µM [inhibitor, partial curve, poor fit]",–
CCOC(=O)c1cc(S(=O)(=O)NCc2ccc(F)cc2)[nH]n1,"inconclusive: 35.5 µM [inhibitor, partial curve]",–
Cc1cccc(CN2CCN(C3CN(CCc4ccccc4)S(=O)(=O)C3)CC2)c1 (stereo unspecified),"inconclusive: 100 µM [inhibitor, partial curve, poor fit]",–
O=C(NCCN1C(=O)S/C(=C\c2ccc(Cl)c([N+](=O)[O-])c2)C1=O)C1=COCCO1,"inconclusive: 112 µM [inhibitor, single point]",–
O=C(CN1CCC(C(O)(c2ccccc2)c2ccccc2)CC1)Nc1cc(Cl)ccc1Cl,–,inactive: -1.36% [at 57.4 µM]
N#Cc1c(C(F)(F)F)cc(-c2ccco2)nc1SCc1ccncc1,–,inactive: -14.5%
CC(=O)Nc1ccc(C(=O)CSc2ncnc3sccc23)cc1,"inconclusive: 50.1 µM [inhibitor, partial curve, poor fit]",–
O=[N+]([O-])c1ccc(Nc2ccccc2O)c2nonc12,"inconclusive: 89.1 µM [inhibitor, partial curve, poor fit]",–
COc1ccccc1N(C(=O)c1snc(C(N)=O)c1N)C(C(=O)NCc1ccccc1)c1ccc(O)cc1 (stereo unspecified),"inconclusive: 50.1 µM [inhibitor, partial curve, poor fit]",–
COCc1nc2cccnc2n1C1CCN(S(=O)(=O)c2ccc(Cl)s2)CC1,–,inactive: 0.454%
CCN(CCCNC(=O)CSc1cc(=O)n(C)c2cc(Cl)ccc12)c1ccccc1,"inconclusive: 79.4 µM [inhibitor, partial curve, poor fit]",–
COc1ccc2oc(=O)c(S(=O)(=O)c3ccc(C)c(C)c3)cc2c1,"inconclusive: 50.1 µM [inhibitor, partial curve]",–
CC(C)(C)c1ccc(C(=O)Nc2nc3c(s2)C[C@@H]2[C@](C)(CO)[C@H](O)CC[C@@]2(C)[C@@H]3CC(=O)NCc2ccco2)cc1,"inconclusive: 28.2 µM [inhibitor, full curve]",–
CN(C)C(=O)c1sccc1Oc1ccc(F)cc1[N+](=O)[O-],"inconclusive: 79.4 µM [inhibitor, partial curve, poor fit]",–
CCCn1nc(C)cc1CN(C)c1ccc(NC(=O)c2ccccc2C)cc1C(=O)O,active: 10 µM,–
CCn1c(-c2ccncc2)n[nH]c1=S,"inconclusive: 56.2 µM [inhibitor, partial curve, poor fit]",–
CCc1ccc(CNC(=O)Cn2nc(C)c3c(C)n(-c4ccc(C)cc4)nc3c2=O)cc1,"inconclusive: 0.891 µM [inhibitor, full curve, poor fit]",–

Structure (SMILES),Potency,"activity change, negative = inhibition"
CCOc1cc(C2C(C#N)=C(N)Oc3n[nH]c(-c4ccncc4)c32)cc([N+](=O)[O-])c1O (stereo unspecified),–,inactive: 1.83%
Cc1ccc(S(=O)(=O)N(C)C)cc1NC(=O)COC(=O)CCCOc1ccccc1,"inconclusive: 50.1 µM [inhibitor, partial curve, poor fit]",–
Cc1ccc2nc(NC(=O)CSc3nccn3Cc3ccc4c(c3)OCO4)sc2c1,"inconclusive: 15.8 µM [inhibitor, partial curve, poor fit]",–
CC(C)CC(=O)NC(=S)Nc1ccc(N2CCN(C(=O)c3cccs3)CC2)cc1,"inconclusive: 112 µM [inhibitor, single point]",–
O=C(NCc1cccs1)c1cc(-c2cccnc2)nc2ccccc12,"inconclusive: 112 µM [inhibitor, single point]",–
CCOC(=O)c1nc2c(ccc3ccccc32)cc1C,"inconclusive: 141 µM [inhibitor, single point]",–
NC(N)=Nc1nc(-c2ccccc2)c2cc(F)ccc2n1,–,inactive: -14.1%
CCC1CN(C(=O)N2CCC(C(=O)NCCCc3ccccc3)CC2)c2ccccc2O1 (stereo unspecified),–,inactive: -11.9%
Cc1nc(C(=O)N(C)C)nn1-c1ccc(Cl)cc1Cl,"inconclusive: 22.4 µM [inhibitor, partial curve, poor fit]",–
Cc1ccc(Nc2nc(CN3CCN(S(=O)(=O)c4ccccc4F)CC3)cs2)cc1,"inconclusive: 112 µM [inhibitor, single point]",–
C=CCN(Cc1ccc(OC)cc1)C(=O)c1cc(=O)c2ccccc2o1,"inconclusive: 35.5 µM [inhibitor, partial curve, poor fit]",–
O=C1c2ccccc2CCC12N=NCC2c1ccc(Cl)cc1 (stereo unspecified),"inconclusive: 39.8 µM [inhibitor, partial curve, poor fit]",–
CCN1/C(=C/c2ccc3cc(C)ccc3[n+]2C)Sc2ccc3sccc3c21,active: 44.7 µM,–
COc1cccc(C(=O)Nc2cccc(-c3nnc(-c4ccccc4)o3)c2)c1,–,inactive: 130%
CC1=NS(=O)(=O)N(C)C=C1C(=O)OCc1nc(-c2ccsc2)no1,–,inactive: 6.48%
CC(=O)Oc1ccc2c(=O)c(Oc3cc(C)cc(C)c3)c(C(F)(F)F)oc2c1,"inconclusive: 44.7 µM [inhibitor, partial curve, poor fit]",–
N#C/C(=C/c1ccc(O)cc1)C(=O)NCc1ccc(Cl)cc1,"inconclusive: 79.4 µM [inhibitor, partial curve, poor fit]",–
CC(=O)Nc1ccc(OC(=O)c2cccnc2)cc1,"inconclusive: 126 µM [inhibitor, single point]",–
O=C(COC(=O)C1CC2CCCC(C1)C2=O)Nc1ccc([N+](=O)[O-])cc1C(F)(F)F (stereo unspecified),"inconclusive: 100 µM [inhibitor, single point]",–
O=C(Nc1ccc(Cl)c(S(=O)(=O)Nc2ccccc2Cl)c1)c1cccs1,–,inactive: -10.1%
CC(=O)Nc1ccc2c(c1)nc(C)n2Cc1ccccc1,"inconclusive: 31.6 µM [inhibitor, partial curve, poor fit]",–
CC/C(=N\NC(=S)NC(C)C)c1ccc(OC)c(OC)c1,"inconclusive: 44.7 µM [inhibitor, partial curve, poor fit]",–

# A section taken from the entries so far:
Structure (SMILES),Potency,"activity change, negative = inhibition"
Cc1ccc(S(=O)(=O)N(C)C)cc1NC(=O)COC(=O)CCCOc1ccccc1,"inconclusive: 50.1 µM [inhibitor, partial curve, poor fit]",–
Cc1ccc2nc(NC(=O)CSc3nccn3Cc3ccc4c(c3)OCO4)sc2c1,"inconclusive: 15.8 µM [inhibitor, partial curve, poor fit]",–
CC(C)CC(=O)NC(=S)Nc1ccc(N2CCN(C(=O)c3cccs3)CC2)cc1,"inconclusive: 112 µM [inhibitor, single point]",–
O=C(NCc1cccs1)c1cc(-c2cccnc2)nc2ccccc12,"inconclusive: 112 µM [inhibitor, single point]",–
